Measurements reported in PubChem BioAssay AID504786 (Drosophila RNAi Screening Center, 2011).
The screen tested about 21,000 reagents; below is a random part of those with a known target gene and a result. 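Primary screen; positive scores mean lost reporter signal, so the sign may be inverted from the usual convention.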 Reagents against one gene are numbered here. Names joined by + are all predicted targets of the reagent. No sequences are given here.

Test: 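Fly genes required for HIF-dependent transcription when hypoxia is mimicked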 (primary screen)
Cell system: Drosophila S2 cells with a stable HIF luciferase reporter
Reagents: long dsRNA against Drosophila genes, about 0.2 µg dsRNA per well of a 384-well plate
Duration: three days of knock-down, then 20 h of DFO before reading
Challenge: desferrioxamine (DFO) at 100 µM, an iron chelator that mimics hypoxia, for 20 h
Read-out: 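HIF reporter luminescence in cells given 100 µM DFO for 20 h, using the mouse ldh-a hypoxia-response element, scored as per-plate z-scores; higher means greater loss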
Direction: z-score: higher = stronger loss of HIF reporter signal

no.	gene knocked down	reagent no.	z-score, replicate 1	z-score, replicate 2	z-score, replicate 3	z-score, replicate 4
1	Ns1	1	1.3	5		
2	Gbeta5	1	-0.3	0		
3	CG8565	1	-0.1	-0.5		
4	CG30110	1	0.1	-0.2		
5	Vsx2	1	-0.5	-0.3	-0.3	-0.1
6	Vsx2	2	-0.4	0		
7	Vsx2	3	-0.3	-0.3	-0.7	0
8	Vsx2	4	-0.3	-0.5	2.9	0.8
9	cry	1	-0.8	0.4		
10	CG31327	1	-0.2	0		
11	CG14506	1	-0.4	0.2		
12	trh	1	-0.4	-0.3		
13	trh	2	-0.2	-0.1		
14	Dph4	1	-0.4	-0.9		
15	CG1142	1	-0.2	-0.5		
16	CG12520	1	-0.1	-0.1		
17	CG7024	1	0.1	-0.2		
18	Ge-1	1	-0.6	-1.4		
19	ATPsynD	1	0.1	1.2		
20	mRpL22	1	1.9	0.6		
21	CG13071	1	-0.4	-0.4		
22	Mkrn1	1	-0.3	-0.2		
23	POSH	1	-0.3	-0.5		
24	nbs	1	-0.2	0.1		
25	Ir75a	1	-0.2	-0.2		

Part of the list above, reformatted:
Mkrn1: z-score, replicate 1 = -0.3; z-score, replicate 2 = -0.2
POSH: z-score, replicate 1 = -0.3; z-score, replicate 2 = -0.5

More entries follow.
no.	gene knocked down	reagent no.	z-score, replicate 1	z-score, replicate 2	z-score, replicate 3	z-score, replicate 4
26	Mst85C	1	-0.2	-0.3		
27	CG13838	1	-0.6	-0.2	-0.6	-0.2
28	Tak1	1	-0.2	-0.3		
29	Tak1	2	-0.1	-0.1		
30	Tak1	3	0.1	0.3		
31	CNPYb	1	-0.2	-0.3		
32	Oxp	1	-0.2	-0.2		
33	ci	1	-0.3	-0.6		
34	Polr3K + Tcs1	1	-0.1	-0.7		
35	Gr61a	1	-0.4	-0.6		
36	Vps52	1	-0.4	-0.4		
37	CG32052	1	-0.1	0.5		
38	CG17141	1	0.4	-0.2		
39	Or65b	1	-0.5	-0.5		
40	CG4210	1	-0.3	-0.2		
41	CG4691	1	-0.2	-0.2		
42	CG4956	1	-0.2	-0.4		
43	CG11951	1	-0.4	0		
44	CG34015	1	-0.5	-0.4		
45	RpL7-like + CG34164	1	-0.3	0.8	2.1	0.2
46	RpL7-like + CG34164	2	-0.4	-0.5		
47	Acox57D-d	1	-0.3	-0.6		
48	Cpr65Ea	1	-0.4	-0.4		
49	CG18477 + CG31780	1	-0.2	-0.5		
50	out	1	-0.4	-0.5		
51	CG34462	1	0.1	0.8		
52	CG10357	1	-0.2	-0.5		
53	Su(H)	1	-0.3	-0.4		
54	CG42594	1	1.7	4.1		
55	CG42594	2	-0.3	-0.1		
56	abd-A	1	-0.7	-0.7		
57	abd-A	2	4.6	5		
